For one molecule, Papp A→B results are on record in publication PMC5972182, “Comparison of a Rat Primary Cell-Based Blood-Brain Barrier Model With Epithelial and Brain Endothelial Cell Lines: Gene Expression and Drug Transport” (Frontiers in Molecular Neuroscience, 2018).

This series is described as follows: Permeability across vinblastine-selected VB-Caco-2 cell layers. The settings on record: human.

`CC(C)c1c(C(=O)Nc2ccccc2)c(-c2ccccc2)c(-c2ccc(F)cc2)n1CC[C@@H](O)C[C@@H](O)CC(=O)O` [Atorvastatin, atorvastatin]: the Papp A→B was determined as 2.98 ×10⁻⁶ cm/s.
